The supplement of paper PMC10849652
This is one part of the list.

The chains behind the UniProt entries cited, without tags or fusion partners. Where a name states a change or a piece, a line headed by the entry shows the natural chain unless it says otherwise.
UniProt Q9Y5R8, whole entry, looked up: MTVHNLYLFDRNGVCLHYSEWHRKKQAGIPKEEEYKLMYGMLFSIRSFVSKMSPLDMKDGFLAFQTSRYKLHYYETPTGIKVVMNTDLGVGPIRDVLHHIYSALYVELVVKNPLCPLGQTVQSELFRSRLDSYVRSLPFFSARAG
UniProt Q9UL33, whole entry, looked up: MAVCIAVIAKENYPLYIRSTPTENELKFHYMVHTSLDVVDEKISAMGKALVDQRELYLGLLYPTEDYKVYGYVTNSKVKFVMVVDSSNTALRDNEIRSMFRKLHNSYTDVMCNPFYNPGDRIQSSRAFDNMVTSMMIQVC
UniProt Q8NG68: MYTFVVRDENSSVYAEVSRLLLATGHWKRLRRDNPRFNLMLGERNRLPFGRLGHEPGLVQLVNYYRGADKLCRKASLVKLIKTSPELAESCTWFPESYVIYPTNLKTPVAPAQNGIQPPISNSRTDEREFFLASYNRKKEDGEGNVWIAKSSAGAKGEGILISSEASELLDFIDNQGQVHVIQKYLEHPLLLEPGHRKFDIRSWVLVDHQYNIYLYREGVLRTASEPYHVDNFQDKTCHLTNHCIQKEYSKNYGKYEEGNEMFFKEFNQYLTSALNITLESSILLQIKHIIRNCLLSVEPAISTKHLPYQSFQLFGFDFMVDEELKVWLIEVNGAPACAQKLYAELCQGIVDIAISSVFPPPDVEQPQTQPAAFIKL
UniProt Q7L0Y3: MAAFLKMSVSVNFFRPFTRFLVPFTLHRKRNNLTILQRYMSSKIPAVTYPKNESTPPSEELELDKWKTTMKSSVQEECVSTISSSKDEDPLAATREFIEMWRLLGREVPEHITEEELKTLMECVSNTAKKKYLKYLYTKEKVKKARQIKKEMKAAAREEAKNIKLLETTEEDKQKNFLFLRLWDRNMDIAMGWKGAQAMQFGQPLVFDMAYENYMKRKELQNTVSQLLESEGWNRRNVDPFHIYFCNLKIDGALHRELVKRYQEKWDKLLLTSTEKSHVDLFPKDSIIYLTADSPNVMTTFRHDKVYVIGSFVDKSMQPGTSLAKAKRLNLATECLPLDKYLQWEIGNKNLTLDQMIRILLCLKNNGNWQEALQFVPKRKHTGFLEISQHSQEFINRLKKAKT
UniProt O75865, whole entry, looked up: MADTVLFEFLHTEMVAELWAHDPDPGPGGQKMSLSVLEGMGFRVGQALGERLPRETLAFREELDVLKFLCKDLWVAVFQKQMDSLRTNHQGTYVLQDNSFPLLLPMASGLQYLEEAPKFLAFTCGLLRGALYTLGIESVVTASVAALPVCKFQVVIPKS
UniProt Q8WV44: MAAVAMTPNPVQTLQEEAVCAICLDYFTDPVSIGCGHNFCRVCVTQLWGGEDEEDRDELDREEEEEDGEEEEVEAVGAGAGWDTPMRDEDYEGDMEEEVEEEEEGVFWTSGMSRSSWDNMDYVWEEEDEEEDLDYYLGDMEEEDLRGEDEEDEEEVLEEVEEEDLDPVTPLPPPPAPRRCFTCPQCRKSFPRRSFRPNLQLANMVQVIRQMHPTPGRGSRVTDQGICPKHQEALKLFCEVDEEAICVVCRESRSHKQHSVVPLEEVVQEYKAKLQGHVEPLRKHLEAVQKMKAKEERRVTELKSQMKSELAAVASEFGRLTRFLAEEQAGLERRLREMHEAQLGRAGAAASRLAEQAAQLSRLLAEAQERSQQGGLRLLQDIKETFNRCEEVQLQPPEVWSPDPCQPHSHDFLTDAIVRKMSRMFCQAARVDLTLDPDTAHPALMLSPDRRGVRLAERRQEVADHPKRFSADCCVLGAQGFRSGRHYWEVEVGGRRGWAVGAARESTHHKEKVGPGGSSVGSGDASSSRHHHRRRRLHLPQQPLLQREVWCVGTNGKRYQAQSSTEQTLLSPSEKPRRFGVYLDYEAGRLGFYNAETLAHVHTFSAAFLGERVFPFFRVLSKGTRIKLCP
UniProt O60637: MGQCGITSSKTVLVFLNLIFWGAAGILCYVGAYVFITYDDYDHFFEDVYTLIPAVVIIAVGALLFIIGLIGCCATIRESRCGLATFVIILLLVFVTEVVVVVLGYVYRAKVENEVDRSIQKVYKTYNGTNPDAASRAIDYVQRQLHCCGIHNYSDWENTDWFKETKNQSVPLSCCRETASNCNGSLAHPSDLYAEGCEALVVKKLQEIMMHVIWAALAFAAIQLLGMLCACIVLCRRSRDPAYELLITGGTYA
UniProt O43734: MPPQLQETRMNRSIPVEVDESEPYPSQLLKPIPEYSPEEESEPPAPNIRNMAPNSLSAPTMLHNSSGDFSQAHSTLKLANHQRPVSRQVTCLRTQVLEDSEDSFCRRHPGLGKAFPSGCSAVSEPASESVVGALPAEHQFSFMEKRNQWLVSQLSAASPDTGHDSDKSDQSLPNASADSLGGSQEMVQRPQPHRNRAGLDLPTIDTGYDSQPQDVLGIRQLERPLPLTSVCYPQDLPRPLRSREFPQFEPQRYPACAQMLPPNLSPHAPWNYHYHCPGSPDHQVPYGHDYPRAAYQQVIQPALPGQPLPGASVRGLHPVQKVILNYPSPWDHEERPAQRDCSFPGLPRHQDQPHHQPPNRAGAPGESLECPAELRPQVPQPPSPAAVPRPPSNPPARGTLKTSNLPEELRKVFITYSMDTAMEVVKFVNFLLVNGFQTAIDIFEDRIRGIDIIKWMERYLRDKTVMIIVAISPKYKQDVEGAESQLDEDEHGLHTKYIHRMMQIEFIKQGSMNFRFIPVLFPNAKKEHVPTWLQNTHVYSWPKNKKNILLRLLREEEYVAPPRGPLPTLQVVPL
UniProt Q629K1: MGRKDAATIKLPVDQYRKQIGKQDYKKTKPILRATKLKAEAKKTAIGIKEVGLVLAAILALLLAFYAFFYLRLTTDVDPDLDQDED
UniProt Q96AY4: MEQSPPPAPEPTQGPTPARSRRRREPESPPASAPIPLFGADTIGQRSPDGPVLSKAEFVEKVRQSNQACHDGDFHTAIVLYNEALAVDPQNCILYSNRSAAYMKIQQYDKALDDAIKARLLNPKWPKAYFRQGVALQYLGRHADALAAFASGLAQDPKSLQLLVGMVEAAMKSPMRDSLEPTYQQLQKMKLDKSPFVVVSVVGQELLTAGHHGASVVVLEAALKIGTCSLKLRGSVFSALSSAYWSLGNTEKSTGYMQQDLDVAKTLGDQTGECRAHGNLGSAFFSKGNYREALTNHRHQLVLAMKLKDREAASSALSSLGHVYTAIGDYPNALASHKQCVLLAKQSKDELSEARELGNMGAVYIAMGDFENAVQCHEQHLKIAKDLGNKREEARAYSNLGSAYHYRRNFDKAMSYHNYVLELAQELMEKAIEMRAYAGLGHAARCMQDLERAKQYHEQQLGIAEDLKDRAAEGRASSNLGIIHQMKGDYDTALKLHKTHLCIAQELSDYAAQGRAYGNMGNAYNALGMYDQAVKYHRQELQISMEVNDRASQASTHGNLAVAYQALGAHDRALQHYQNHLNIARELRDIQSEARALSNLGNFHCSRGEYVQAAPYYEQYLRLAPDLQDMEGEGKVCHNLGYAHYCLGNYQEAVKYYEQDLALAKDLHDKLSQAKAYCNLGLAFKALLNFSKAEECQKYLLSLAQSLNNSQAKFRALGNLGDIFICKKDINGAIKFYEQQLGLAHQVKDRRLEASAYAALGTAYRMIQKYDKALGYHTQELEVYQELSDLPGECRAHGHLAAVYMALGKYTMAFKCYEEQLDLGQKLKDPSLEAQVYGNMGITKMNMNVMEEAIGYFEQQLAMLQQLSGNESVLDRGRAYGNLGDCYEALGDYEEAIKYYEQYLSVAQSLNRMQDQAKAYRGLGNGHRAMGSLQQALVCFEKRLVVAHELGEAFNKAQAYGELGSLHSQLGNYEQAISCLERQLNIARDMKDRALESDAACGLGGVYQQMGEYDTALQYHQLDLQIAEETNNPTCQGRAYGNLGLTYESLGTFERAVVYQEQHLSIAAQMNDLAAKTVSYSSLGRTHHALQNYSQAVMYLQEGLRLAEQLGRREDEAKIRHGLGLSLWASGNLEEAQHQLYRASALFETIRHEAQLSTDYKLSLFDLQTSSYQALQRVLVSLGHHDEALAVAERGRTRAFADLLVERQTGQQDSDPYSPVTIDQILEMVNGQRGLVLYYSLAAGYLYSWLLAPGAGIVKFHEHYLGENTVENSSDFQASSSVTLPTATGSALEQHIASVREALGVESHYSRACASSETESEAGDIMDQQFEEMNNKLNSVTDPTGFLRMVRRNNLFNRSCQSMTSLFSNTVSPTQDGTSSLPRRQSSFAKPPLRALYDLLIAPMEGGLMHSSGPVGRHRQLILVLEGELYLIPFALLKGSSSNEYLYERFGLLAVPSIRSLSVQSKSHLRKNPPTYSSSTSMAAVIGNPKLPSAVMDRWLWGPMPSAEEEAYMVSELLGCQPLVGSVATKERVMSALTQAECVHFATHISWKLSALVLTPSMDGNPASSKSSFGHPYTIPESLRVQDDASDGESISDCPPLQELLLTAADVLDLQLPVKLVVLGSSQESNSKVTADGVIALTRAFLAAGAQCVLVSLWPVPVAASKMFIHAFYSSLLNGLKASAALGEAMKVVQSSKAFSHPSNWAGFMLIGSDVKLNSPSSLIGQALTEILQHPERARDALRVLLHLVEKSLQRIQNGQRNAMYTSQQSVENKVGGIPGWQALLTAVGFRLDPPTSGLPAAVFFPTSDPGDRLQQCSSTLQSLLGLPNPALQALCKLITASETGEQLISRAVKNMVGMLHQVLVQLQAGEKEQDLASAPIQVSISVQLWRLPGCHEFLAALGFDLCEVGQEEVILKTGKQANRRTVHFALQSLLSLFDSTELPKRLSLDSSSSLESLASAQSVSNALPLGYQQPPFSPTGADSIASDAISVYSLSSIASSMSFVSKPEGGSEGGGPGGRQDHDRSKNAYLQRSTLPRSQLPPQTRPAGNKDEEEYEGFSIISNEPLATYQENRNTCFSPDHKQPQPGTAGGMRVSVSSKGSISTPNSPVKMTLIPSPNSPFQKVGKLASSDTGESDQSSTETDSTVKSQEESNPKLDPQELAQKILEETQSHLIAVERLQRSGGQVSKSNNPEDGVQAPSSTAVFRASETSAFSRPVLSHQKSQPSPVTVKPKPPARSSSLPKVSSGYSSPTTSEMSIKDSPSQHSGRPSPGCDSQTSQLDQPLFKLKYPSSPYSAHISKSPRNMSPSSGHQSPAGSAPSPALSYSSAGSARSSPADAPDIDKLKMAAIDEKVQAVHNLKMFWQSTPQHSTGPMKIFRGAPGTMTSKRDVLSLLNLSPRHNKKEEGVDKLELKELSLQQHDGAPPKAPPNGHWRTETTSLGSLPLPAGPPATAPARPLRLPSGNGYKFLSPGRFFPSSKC
UniProt O95900: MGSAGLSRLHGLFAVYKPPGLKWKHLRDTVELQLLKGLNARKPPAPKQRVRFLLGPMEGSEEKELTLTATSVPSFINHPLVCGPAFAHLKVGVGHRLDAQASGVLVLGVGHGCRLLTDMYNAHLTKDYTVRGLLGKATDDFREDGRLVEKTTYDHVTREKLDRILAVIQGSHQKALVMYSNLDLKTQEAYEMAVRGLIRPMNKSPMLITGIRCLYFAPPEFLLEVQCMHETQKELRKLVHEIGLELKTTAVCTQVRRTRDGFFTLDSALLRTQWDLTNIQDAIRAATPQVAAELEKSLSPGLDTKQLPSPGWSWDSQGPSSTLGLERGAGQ
UniProt O94972: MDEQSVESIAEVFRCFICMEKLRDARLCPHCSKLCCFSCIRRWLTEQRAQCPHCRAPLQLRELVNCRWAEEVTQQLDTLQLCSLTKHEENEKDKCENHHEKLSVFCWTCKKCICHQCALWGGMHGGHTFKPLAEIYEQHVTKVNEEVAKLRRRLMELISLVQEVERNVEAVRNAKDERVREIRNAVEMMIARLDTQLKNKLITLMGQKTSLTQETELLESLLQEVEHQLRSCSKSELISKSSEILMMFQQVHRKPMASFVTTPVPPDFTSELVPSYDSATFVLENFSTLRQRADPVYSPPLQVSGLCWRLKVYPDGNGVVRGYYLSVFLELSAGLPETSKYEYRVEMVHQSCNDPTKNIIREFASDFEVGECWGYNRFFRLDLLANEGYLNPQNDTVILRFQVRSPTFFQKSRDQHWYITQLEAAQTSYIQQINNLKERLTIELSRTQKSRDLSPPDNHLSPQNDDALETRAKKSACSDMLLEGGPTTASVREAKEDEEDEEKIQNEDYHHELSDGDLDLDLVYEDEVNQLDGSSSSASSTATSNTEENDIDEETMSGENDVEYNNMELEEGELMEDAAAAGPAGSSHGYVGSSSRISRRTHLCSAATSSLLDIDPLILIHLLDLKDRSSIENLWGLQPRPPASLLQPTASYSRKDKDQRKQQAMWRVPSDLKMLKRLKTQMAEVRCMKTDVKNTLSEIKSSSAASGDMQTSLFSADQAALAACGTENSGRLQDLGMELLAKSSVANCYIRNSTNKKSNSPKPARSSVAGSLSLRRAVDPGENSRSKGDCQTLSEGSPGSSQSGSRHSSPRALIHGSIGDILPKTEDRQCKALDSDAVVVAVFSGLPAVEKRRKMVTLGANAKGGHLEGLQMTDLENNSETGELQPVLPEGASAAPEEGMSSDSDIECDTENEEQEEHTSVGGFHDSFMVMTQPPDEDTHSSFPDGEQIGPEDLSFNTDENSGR

Experiments:
Assay in all cases: log2 fold change, soluble protein after heating vs DMSO (PISA); higher = thermal stabilisation; K562 lysate, 10 uM; active = over 0.2 and 3.5 SD of the protein, either way, in both replicates (recomputed)
nilotinib = compound: Cc1cn(-c2cc(NC(=O)c3ccc(C)c(Nc4nccc(-c5cccnc5)n4)c3)cc(C(F)(F)F)c2)cn1 [nilotinib]
How it was run: (§1)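 Following dounce homogenisation of K562 pellets in PBS pH 7.4 with 1 mM MgCl2, crude extract at 1 mg/mL protein was incubated for 30 min with 10 μM compound. Aliquots were then heated for 3 min over 48°C-58°C and pooled, NP-40 was added to 0.5% at 4°C, and soluble protein was recovered as the supernatant at 21,000xg for 90 min. Channel-sum-equalised TMTpro 16plex LC-MS/MS quantified this protein. Each value, from duplicates, is a log-two fold change in thermal stability relative to solvent controls.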

[1] = compound: Cc1nc(Nc2n[nH]c3c2CN(C(=O)N[C@H](CN(C)C)c2ccccc2)C3(C)C)c2sccc2n1
How it was run: as §1

dasatinib = compound: Cc1nc(Nc2ncc(C(=O)Nc3c(C)cccc3Cl)s2)cc(N2CCN(CCO)CC2)n1 [dasatinib]
How it was run: as §1

[2] = compound: Cc1ncc(-c2ccnc(Nc3ccc(S(C)(=O)=O)cc3)n2)n1C(C)C
How it was run: as §1

[3] = compound: Cn1cc(-c2ccc3c(c2)CCN3C(=O)Cc2cccc(C(F)(F)F)c2)c2c(N)ncnc21
How it was run: as §1

quisinostat = compound: Cn1cc(CNCC2CCN(c3ncc(C(=O)NO)cn3)CC2)c2ccccc21 [quisinostat]
How it was run: as §1

tipifarnib = compound: Cn1cncc1[C@@](N)(c1ccc(Cl)cc1)c1ccc2c(c1)c(-c1cccc(Cl)c1)cc(=O)n2C [tipifarnib]
How it was run: as §1

[4] = compound: NC(=O)Nc1cc(-c2cccc(F)c2)sc1C(=O)N[C@H]1CCCNC1
How it was run: as §1

[5] = compound: NC(=O)c1cnc(N[C@@H]2CCCC[C@@H]2N)nc1Nc1cccc(-n2nccn2)c1
How it was run: as §1

[6] = compound: NC1(c2ccc(-c3nc4ccn5c(=O)[nH]nc5c4cc3-c3ccccc3)cc2)CCC1
How it was run: as §1

Measured: log2 fold change

TRAF6 (UniProt Q9Y4K3)
inactive: nilotinib 0.021 | [1] 0.021 | dasatinib 0.004 | [2] -0.026 | [3] 0.022 | quisinostat 0.004 | tipifarnib -0.017 | [4] 0.026 | [5] -0.03 | [6] 0.023

TRAPPC1 (UniProt Q9Y5R8)
inactive: nilotinib 0.102 | [1] 0.019 | dasatinib -0.017 | [2] 0.025 | [3] 0.031 | quisinostat -0.074 | tipifarnib 0.086 | [4] 0.007 | [5] 0.067 | [6] -0.003

TRIM25 (UniProt Q14258)
inactive: nilotinib 0.014 | [1] 0.027 | dasatinib -0.003 | [2] -0.001 | [3] -0.002 | quisinostat 0.002 | tipifarnib -0.001 | [4] -0.001 | [5] -0.019 | [6] 0.023

TRAPPC2L (UniProt Q9UL33)
inactive: nilotinib -0.024 | [1] 0.163 | dasatinib -0.028 | [2] -0.046 | [3] 0.029 | quisinostat -0.024 | tipifarnib -0.073 | [4] 0.004 | [5] 0.001 | [6] 0.016

TTL (UniProt Q8NG68)
inactive: nilotinib -0.045 | [1] -0.082 | dasatinib -0.049 | [2] -0.062 | [3] 0.056 | quisinostat -0.115 | tipifarnib -0.008 | [4] 0.017 | [5] 0.018 | [6] 0.03

TRNT1 (UniProt Q96Q11)
inactive: nilotinib 0.003 | [1] 0.01 | dasatinib 0.032 | [2] -0.023 | [3] 0.012 | quisinostat -0.009 | tipifarnib -0.016 | [4] 0.013 | [5] 0.006 | [6] 0.008

TSFM (UniProt P43897)
inactive: nilotinib -0.013 | [1] 0.021 | dasatinib -0.034 | [2] -0.028 | [3] 0.017 | quisinostat -0.016 | tipifarnib 0.002 | [4] 0.002 | [5] 0.037 | [6] -0.026

TRIM33 (UniProt H0Y612)
inactive: nilotinib -0.021 | [1] 0.153 | dasatinib 0.043 | [2] 0.138 | [3] -0.033 | quisinostat -0.238 | tipifarnib -0.052 | [4] 0.069 | [5] -0.036 | [6] -0.106

TRAPPC8 (UniProt Q9Y2L5)
inactive: nilotinib 0.008 | [1] -0.001 | dasatinib -0.071 | [2] -0.002 | [3] 0.059 | quisinostat -0.009 | tipifarnib 0.006 | [4] 0.014 | [5] 0 | [6] -0.007

TRMT2A (UniProt Q8IZ69)
inactive: nilotinib -0.034 | [1] -0.011 | dasatinib -0.018 | [2] -0.011 | [3] 0.013 | quisinostat -0.023 | tipifarnib -0.007 | [4] 0.016 | [5] -0.002 | [6] -0.012

TTC33 (UniProt Q6PID6)
inactive: nilotinib 0.015 | [1] -0.003 | dasatinib -0.025 | [2] 0.141 | [3] 0.082 | quisinostat -0.04 | tipifarnib 0.142 | [4] 0.027 | [5] 0.047 | [6] 0.037

3 consecutive records already listed:
TRNT1 (UniProt Q96Q11)
inactive: nilotinib 0.003 | [1] 0.01 | dasatinib 0.032 | [2] -0.023 | [3] 0.012 | quisinostat -0.009 | tipifarnib -0.016 | [4] 0.013 | [5] 0.006 | [6] 0.008

TSFM (UniProt P43897)
inactive: nilotinib -0.013 | [1] 0.021 | dasatinib -0.034 | [2] -0.028 | [3] 0.017 | quisinostat -0.016 | tipifarnib 0.002 | [4] 0.002 | [5] 0.037 | [6] -0.026

TRIM33 (UniProt H0Y612)
inactive: nilotinib -0.021 | [1] 0.153 | dasatinib 0.043 | [2] 0.138 | [3] -0.033 | quisinostat -0.238 | tipifarnib -0.052 | [4] 0.069 | [5] -0.036 | [6] -0.106

Following part

TRPV2 (UniProt Q9Y5S1)
inactive: nilotinib 0.018 | [1] 0.011 | dasatinib -0.06 | [2] 0.034 | [3] -0.029 | quisinostat 0.065 | tipifarnib -0.069 | [4] -0.036 | [5] -0.005 | [6] 0.014

TRMT10C (UniProt Q7L0Y3)
inactive: nilotinib -0.017 | [1] 0.054 | dasatinib -0.016 | [2] 0.039 | [3] 0.014 | quisinostat -0.042 | tipifarnib 0.033 | [4] 0.022 | [5] 0.021 | [6] -0.023

TSN (UniProt Q15631)
inactive: nilotinib 0.016 | [1] -0.009 | dasatinib 0.042 | [2] 0.012 | [3] 0.001 | quisinostat 0.012 | tipifarnib -0.009 | [4] 0 | [5] -0.01 | [6] -0.021

TSR1 (UniProt Q2NL82)
inactive: nilotinib 0.077 | [1] 0.001 | dasatinib -0.015 | [2] 0.026 | [3] 0.045 | quisinostat -0.025 | tipifarnib -0.003 | [4] 0.052 | [5] -0.001 | [6] -0.019

TTC5 (UniProt Q8N0Z6)
inactive: nilotinib 0.012 | [1] -0.064 | dasatinib 0 | [2] -0.016 | [3] 0.047 | quisinostat -0.084 | tipifarnib 0.01 | [4] 0 | [5] -0.007 | [6] 0.001

TTF2 (UniProt Q9UNY4)
inactive: nilotinib -0.008 | [1] -0.062 | dasatinib -0.012 | [2] -0.023 | [3] 0.018 | quisinostat -0.042 | tipifarnib 0.004 | [4] 0.02 | [5] 0.019 | [6] -0.067

TRPC4AP (UniProt Q8TEL6)
inactive: nilotinib 0.115 | [1] -0.015 | dasatinib -0.021 | [2] -0.004 | [3] 0.078 | quisinostat -0.03 | tipifarnib 0.016 | [4] 0 | [5] -0.037 | [6] 0.002

TRAPPC6A isoform 2 (UniProt O75865)
inactive: nilotinib 0.015 | [1] -0.09 | dasatinib -0.026 | [2] 0.02 | [3] -0.058 | quisinostat 0.006 | tipifarnib 0.048 | [4] -0.048 | [5] -0.008 | [6] 0.076

TTBK2 (UniProt Q6IQ55)
inactive: quisinostat 0.007 | [4] 0.052 | [6] -0.16

TSPAN4 (UniProt O14817)
inactive: quisinostat 0.066 | [4] 0.043 | [6] -0.015

TTC39B (UniProt Q5VTQ0)
inactive: dasatinib -0.031 | [3] 0.1 | [5] -0.042 | [6] 0

TSPYL6 (UniProt Q8N831)
inactive: dasatinib 0.021 | [3] 0.039 | [6] 0.046

TRIM41 (UniProt Q8WV44)
inactive: dasatinib -0.069 | [3] 0.006 | quisinostat -0.041 | [4] 0.027 | [5] 0.077

TTC21B (UniProt Q7Z4L5)
inactive: nilotinib -0.12 | [1] 0.024 | dasatinib 0.073 | [2] -0.02 | [3] 0.096 | tipifarnib 0.021 | [6] 0.139

Quoted at random: 3 entries already listed.
TSPYL6 (UniProt Q8N831)
inactive: dasatinib 0.021 | [3] 0.039 | [6] 0.046

TTC39B (UniProt Q5VTQ0)
inactive: dasatinib -0.031 | [3] 0.1 | [5] -0.042 | [6] 0

TSPAN4 (UniProt O14817)
inactive: quisinostat 0.066 | [4] 0.043 | [6] -0.015

Additional results.

TTLL4 (UniProt Q14679)
inactive: nilotinib 0.13 | [1] -0.045 | [2] 0.077 | tipifarnib 0.033

TTC13 (UniProt Q8NBP0)
inactive: quisinostat -0.149 | [4] -0.062 | [5] 0.562

TRAF3IP1 (UniProt Q8TDR0)
inactive: dasatinib -0.029 | [3] 0.128 | quisinostat 0.082 | [4] 0.025 | [5] -0.035 | [6] -0.081

TRPM4 (UniProt Q8TD43)
inactive: dasatinib -0.02 | [3] -0.099 | quisinostat -0.01 | [4] 0.111 | [6] 0.089

TRIM26 (UniProt Q12899)
inactive: nilotinib -0.132 | [1] 0.027 | [2] -0.155 | quisinostat -0.002 | tipifarnib 0.061 | [4] -0.076 | [5] -0.001

TRIM3 (UniProt O75382)
inactive: [5] 0.623 | [6] 0.146

TSPAN3 (UniProt O60637)
inactive: nilotinib 0.004 | [1] -0.003 | dasatinib 0.118 | [2] -0.199 | [3] 0.033 | tipifarnib -0.032 | [5] -0.098 | [6] 0.015

TRAF3IP2 (UniProt O43734)
inactive: [6] -0.088

TRIM47 (UniProt Q96LD4)
inactive: nilotinib 0 | [1] 0.118 | dasatinib 0.209 | [2] -0.084 | [3] -0.032 | tipifarnib 0.145 | [5] 0.062 | [6] 0.152

TRAM2 (UniProt Q15035)
inactive: quisinostat 0.058 | [4] 0.088 | [5] 0.208

TRIQK (UniProt Q629K1)
inactive: dasatinib 0.218 | [3] 0.225 | quisinostat -0.04 | [4] -0.01 | [5] -0.007 | [6] 0.037

TRPS1 isoform 2 (UniProt Q9UHF7)
inactive: dasatinib 0.103 | [3] -0.106 | quisinostat -0.465 | [4] 0.199 | [5] -0.086 | [6] 0.007

TTC28 (UniProt Q96AY4)
inactive: nilotinib 0.011 | [1] -0.114 | [2] -0.054 | quisinostat -0.155 | tipifarnib 0.101 | [4] 0.108 | [6] -0.147

TSTD2 (UniProt Q5T7W7)
inactive: nilotinib -0.01 | [1] -0.03 | dasatinib -0.162 | [2] 0.01 | [3] -0.085 | tipifarnib 0.127 | [5] 0.03 | [6] 0.009

TRIB3 (UniProt Q96RU7)
inactive: dasatinib 0.126 | [3] -0.016 | [6] 0.108

TRIM67 (UniProt Q6ZTA4)
inactive: [5] 0.215 | [6] 0.079

TTF1 (UniProt Q15361)
inactive: nilotinib -0.074 | [1] -0.047 | [2] 0.135 | tipifarnib 0.033

TTC7A isoform 4 (UniProt Q9ULT0)
inactive: nilotinib 0.008 | [1] -0.153 | [2] -0.17 | tipifarnib 0.17

TTC3 (UniProt P53804)
inactive: nilotinib -0.041 | [1] -0.148 | dasatinib -0.081 | [2] 0.053 | [3] 0.073 | tipifarnib -0.363 | [6] 0.061

TRIM16 (UniProt O95361)
inactive: dasatinib -0.061 | [3] -0.04 | [6] -0.092

TRIM27 (UniProt P14373)
inactive: nilotinib 0.075 | [1] -0.006 | [2] 0.104 | quisinostat -0.015 | tipifarnib 0.008 | [4] 0.068 | [6] 0.069

TSC22D3 isoform 3 (UniProt Q99576)
inactive: quisinostat -0.072 | [4] -0.032 | [6] 0.039

TTC30B (UniProt Q8N4P2)
inactive: quisinostat 0.064 | [4] 0.139

TRUB2 (UniProt O95900)
inactive: dasatinib -0.07 | [3] 0.043 | [6] -0.016

TSPAN31 (UniProt Q12999)
inactive: dasatinib 0.135 | [3] 0.05 | quisinostat 0.017 | [4] -0.007

TRIM68 (UniProt Q6AZZ1)
inactive: nilotinib -0.156 | [1] 0.037 | [2] 0.023 | quisinostat -0.642 | tipifarnib 0.005 | [4] 0.072 | [6] 0.05

TRIM37 (UniProt O94972)
inactive: dasatinib -0.163 | [3] 0.046 | quisinostat 0 | [4] 0.122 | [6] 0.008

TRAF5 isoform 2 (UniProt O00463)
inactive: [6] -0.099

TSKS (UniProt Q9UJT2)
inactive: dasatinib 0.119 | [3] -0.077 | quisinostat -0.024 | [4] -0.005 | [6] -0.032

TRMT44 (UniProt Q8IYL2)
inactive: quisinostat -0.245 | [4] 0.13

TTLL12 (UniProt V9GY16)
inactive: quisinostat -0.436 | [4] -0.021 | [6] 0.039

TRIOBP (UniProt Q9H2D6)
inactive: dasatinib -0.029 | [3] 0.057 | quisinostat 0.004 | [4] 0.039 | [5] -0.041 | [6] 0.007

TSC22D1 isoform 2 (UniProt Q15714)
inactive: quisinostat -0.134 | [4] 0.078

TRMO (UniProt Q9BU70)
inactive: dasatinib -0.002 | [3] 0.055 | quisinostat -0.047 | [4] 0.058
